The list shows a part of the results. Further columns of the screen follow, without active or inactive calls. Compounds called inactive in the main read-out are mostly missing here. The note in brackets gives the kind of curve behind each potency; many fits are weak.

This test can be described thus: qHTS Assay for Lipid Storage Modulators in Drosophila S3 Cells.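 As to cell number change: cells counted by Cell Tracker Red CMTPX staining in the red channel.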 The following applies: BODIPY lipid droplet fluorescence, 18-24 h; for cell number change: measured here: cell count max response, cells fed with added oleic acid. A digest of the protocol:
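Laser-scanning cytometry quantifies lipid droplet accumulation (500–530 nm total intensity; droplet/cell object ratio) in oleic acid-fed (400 uM added) Drosophila S3 cells treated with a concentration series. 20 uM Triacsin C defined 100% inhibition.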

The mark [1] stands for this setting: measured here: lipid fluorescence (Fed channel) AC50, cells fed with added oleic acid.
[2] abbreviates: measured here: cell number channel AC50, cells fed with added oleic acid.

One may read the AC50 as the midpoint of the concentration-response curve, whichever way the signal moves. Consider `O=C(Nc1ccc(F)c(Cl)c1)N1CCCC1`, for which the cell number change is -16.6%. Besides, under setting [1], the AC50 was 0.146 µM [falling, full curve, poor fit]. On to `Cc1ccc(-c2nn3c(C)nnc3s2)cc1N`, for which the cell number change was -5.25%.

Turning to `CCOc1ccc(-n2c(C)nc3c(cnn3-c3ccc(Cl)cc3)c2=O)cc1`, the cell number change was 76.8%. For the same molecule, the AC50 under setting [2] was 29.1 µM [rising, single point].

For the molecule `Cn1c(Cc2cccs2)nnc1SCC(=O)N1CCCc2ccccc21`, the cell number change came to 60.5%. For the same molecule, the AC50 under setting [2] was 20.6 µM [rising, single point].

Regarding `CCOC(=O)c1sc(-c2ccccc2)cc1N`, the AC50 under setting [1] was 6.51 µM [rising, single point]. Regarding `COc1ccc(CCN(C)C(=O)c2cc(=O)c3ccccc3o2)cc1OC`, under setting [1], the AC50 was 29.1 µM [falling, partial curve, poor fit].

In the case of `CCc1noc(C)c1C(=O)N(CC)CC(=O)Nc1cc(Cl)ccc1C`, the cell number change was -32.3%. Moreover, the AC50 under setting [2] was 32.6 µM [falling, partial curve, poor fit]. Also, the AC50 under setting [1] is 25.9 µM [falling, partial curve, poor fit].

In the case of `Cc1sc2ncnc(N3CCC(C(=O)NNC(=O)c4ccc(F)cc4)CC3)c2c1C`, the cell number change was determined as 46.2%. Under setting [2], the AC50 is 4.11 µM [rising, full curve]. Further, under setting [1], the AC50 is 2.31 µM [rising, partial curve].

With `O=C(CSc1nncn1-c1cccnc1)Nc1ccccc1[N+](=O)[O-]`, the cell number change is 30.8%. The AC50 under setting [2] was 29.1 µM [rising, single point]. The AC50 under setting [1] was 0.116 µM [falling, single point]. With `CC(C)OC(=O)CSc1ncnc2c1cnn2Cc1ccccc1`, the cell number change worked out at 3.88%. Further, the AC50 under setting [1] is 4.11 µM [falling, full curve, poor fit]. On to `CC1(C)Cc2nc3sc4c(=O)n(CC(N)=O)cnc4c3cc2CO1`, for which the cell number change was determined as 31.1%. Also, the AC50 under setting [2] was 32.6 µM [rising, single point]. Also, the AC50 under setting [1] is 0.13 µM [rising, full curve, poor fit]. Turning to `CCOC(=O)c1c(C)[nH]c(C(=O)N2CCN(c3ccc(OC)cc3)CC2)c1C`, the cell number change stood at 26%. Take `CCCc1cc(=O)[nH]c(SCC(=O)NCC2COc3ccccc3O2)n1` (stereo unspecified): the cell number change was 0.13%. Under setting [1], the AC50 was 0.116 µM [falling, full curve, poor fit].

Turning to `CC12CC3CC(C)(C1)CC(C(O)CN1CCOCC1)(C3)C2` (stereo unspecified), the cell number change is -22.4%. Further, under setting [1], the AC50 was 0.58 µM [falling, single point]. For `O=C(Nc1cc(S(=O)(=O)N2CCOCC2)ccc1N1CCCC1)c1cc(F)c(F)cc1Cl`, the AC50 under setting [1] is 6.51 µM [falling, single point]. `COc1ccccc1N1CCN(C(=O)c2ccc3c(c2)CCN3S(C)(=O)=O)CC1`: the cell number change is -6.93%. The same measure, in the same setting: in the case of `C=C(C)C1CC=C(C)/C(=N/NC(=S)Nc2ccccc2)C1` (stereo unspecified) it was 6.28%.

(Values after PubChem BioAssay AID2685 (National Center for Advancing Translational Sciences (NCATS), 2010).)
